Results are given in words; binding and its absence hold for the method and conditions named. Binding seen in cells or lysates may run through a third protein. Some results given as binding are weak or reduced against the parent protein; the word gives no strength. Where a sequence is shown, tags or fusion partners need not be part of it.
T1: AFG2 Interacting Ribosome Maturation Factor (AIRIM), wild type, Flag-HA-tagged (human) (UniProt Q9NX04)
T1 sequence: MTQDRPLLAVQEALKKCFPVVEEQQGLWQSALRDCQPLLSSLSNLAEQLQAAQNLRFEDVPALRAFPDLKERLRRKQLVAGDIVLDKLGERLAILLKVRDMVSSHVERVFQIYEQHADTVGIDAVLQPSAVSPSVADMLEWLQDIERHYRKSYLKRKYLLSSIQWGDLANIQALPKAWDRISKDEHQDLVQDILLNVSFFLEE


biological target: T1, AFG2 Interacting Ribosome Maturation Factor (AIRIM), wild type, Flag-HA-tagged (human); assay: co-IP; Flag-HA-AIRIM (wild type or variant) transiently expressed in HEK293T for 48 h; whole-cell lysate in 100 mM NaCl, 50 mM Tris-HCl pH 7.4, 0.2% NP-40, 10% glycerol, 1 mM MgCl2, 1 mM DTT with Benzonase; anti-Flag M2-agarose 3 h at 4 °C, Flag peptide elution, western blot for AFG2A, AFG2B, CINP, POLD3

binding	Binder
binds	AFG2 AAA ATPase Homolog B (AFG2B) (protein, UniProt Q9BVQ7 1-753) MAPDSDPFPEGPLLKLLPLDARDRGTQRCRLGPAALHALGARLGSAVKISLPDGGSCLCTAWPRRDGADGFVQLDPLCASPGAAVGASRSRRSLSLNRLLLVPCPPLRRVAVWPVLRERAGAPGARNTAAVLEAAQELLRNRPISLGHVVVAPPGAPGLVAALHIVGGTPSPDPAGLVTPRTRVSLGGEPPSEAQPQPEVPLGGLSEAADSLRELLRLPLRYPRALTALGLAVPRGVLLAGPPGVGKTQLVRAVAREAGAELLAVSAPALQGSRPGETEENVRRVFQRARELASRGPSLLFLDEMDALCPQRGSRAPESRVVAQVLTLLDGASGDREVVVVGATNRPDALDPALRRPGRFDREVVIGTPTLKQRKEILQVITSKMPISSHVDLGLLAEMTVGYVGADLTALCREAAMHALLHSEKNQDNPVIDEIDFLEAFKNIQPSSFRSVIGLMDIKPVDWEEIGGLEDVKLKLKQSIEWPLKFPWEFVRMGLTQPKGVLLYGPPGCAKTTLVRALATSCHCSFVSVSGADLFSPFVGDSEKVLSQIFRQARASTPAILFLDEIDSILGARSASKTGCDVQERVLSVLLNELDGVGLKTIERRGSKSSQQEFQEVFNRSVMIIAATNRPDVLDTALLRPGRLDKIIYIPPPDHKGRLSILKVCTKTMPIGPDVSLENLAAETCFFSGADLRNLCTEAALLALQENGLDATTVKQEHFLKSLKTVKPSLSCKDLALYENLFKKEGFSNVEGI
binds	Cyclin-Dependent Kinase 2 Interacting Protein (CINP) (protein, UniProt Q9BW66 1-212) MEAKTLGTVTPRKPVLSVSARKIKDNAADWHNLILKWETLNDAGFTTANNIANLKISLLNKDKIELDSSSPASKENEEKVCLEYNEELEKLCEELQATLDGLTKIQVKMEKLSSTTKGICELENYHYGEESKRPPLFHTWPTTHFYEVSHKLLEMYRKELLLKRTVAKELAHTGDPDLTLSYLSMWLHQPYVESDSRLHLESMLLETGHRAL
binds	AFG2 AAA ATPase Homolog A (AFG2A) (protein, UniProt Q8NB90 1-893) MSSKKNRKRLNQSAENGSSLPSAASSCAEARAPSAGSDFAATSGTLTVTNLLEKVDDKIPKTFQNSLIHLGLNTMKSANICIGRPVLLTSLNGKQEVYTAWPMAGFPGGKVGLSEMAQKNVGVRPGDAIQVQPLVGAVLQAEEMDVALSDKDMEINEEELTGCILRKLDGKIVLPGNFLYCTFYGRPYKLQVLRVKGADGMILGGPQSDSDTDAQRMAFEQSSMETSSLELSLQLSQLDLEDTQIPTSRSTPYKPIDDRITNKASDVLLDVTQSPGDGSGLMLEEVTGLKCNFESAREGNEQLTEEERLLKFSIGAKCNTDTFYFISSTTRVNFTEIDKNSKEQDNQFKVTYDMIGGLSSQLKAIREIIELPLKQPELFKSYGIPAPRGVLLYGPPGTGKTMIARAVANEVGAYVSVINGPEIISKFYGETEAKLRQIFAEATLRHPSIIFIDELDALCPKREGAQNEVEKRVVASLLTLMDGIGSEVSEGQVLVLGATNRPHALDAALRRPGRFDKEIEIGVPNAQDRLDILQKLLRRVPHLLTEAELLQLANSAHGYVGADLKVLCNEAGLCALRRILKKQPNLPDVKVAGLVKITLKDFLQAMNDIRPSAMREIAIDVPNVSWSDIGGLESIKLKLEQAVEWPLKHPESFIRMGIQPPKGVLLYGPPGCSKTMIAKALANESGLNFLAIKGPELMNKYVGESERAVRETFRKARAVAPSIIFFDELDALAVERGSSLGAGNVADRVLAQLLTEMDGIEQLKDVTILAATNRPDRIDKALMRPGRIDRIIYVPLPDAATRREIFKLQFHSMPVSNEVDLDELILQTDAYSGAEIVAVCREAALLALEEDIQANLIMKRHFTQALSTVTPRIPESLRRFYEDYQEKSGLHTL

— publication PMC12339376
